Plain letter strings leave the end groups untold. Some peptides are written in HELM: one residue between dots, names in brackets for other building blocks, links after the first $. Ends that are not written are not given here.
Experiment: peptide made by a vendor
Details: whole synthesis

Substance	crude purity (method not given)	purity (crude or final not stated)
(AQD)IISTIG ? LVKWII ? TVNKFTK	89.5%	
(MAAD)IISTIG ? LIKWII ? TVKKFKK (IISTIGDLIKWIIDTVKKFKK; S. saccharolyticus)	70.8%	
(MAAD)IISTIS ? LVKWII ? TVNKFTK	85.1%	
(MAAN)IISTIG ? LVKWII ? TVNKFKK	91.2%	
(MAGD)IIGTIN ? LIKWIA ? TV ? KYKK (IIGTINDLIKWIADTVEKYKK; S. massiliensis)	82.8%	
(MLTMAAD)IISTIV ? FVKLIA ? TIAKFMK (IISTIVEFVKLIAETIAKFMK; S. cornubiensis)	94.4%	
(MS)IIAGIIKFIKGLI ? KFTGK (IIAGIIKFIKGLIEKFTGK)	72.1%	
(MTKD)IV ? TVGGLVKWIL ? TVKKFA (IVETVGGLVKWILDTVKKFA; S. auricularis)	86.7%	
AVGGLVKWILDTVKKFA		97.1%
H-MTKDIVETVGGLVKWILDTVKKFA		95.1%
PEPTIDE1{[For].M.T.K.D.I.V.E.T.V.G.G.L.V.K.W.I.L.D.T.V.K.K.F.A}$$$$V2.0		97.5%
TAGGLVKWILDTVKKFA		97.8%
TV ? LVKWIL ? VAKF ?		97.4%
TVAGLVKWILATVKKFA		94.2%
TVAGLVKWILDTVKKFA		83.1%
TVDGLVKWILATVKKFA		96.1%
TVGALVKWILDTVKKFA		98.4%
TVGGLVKWIL ? TVKKFA-NH2 [listing 1 of 2 here]		98.6%
TVGGLVKWIL ? TVKKFA-NH2 [listing 2 of 2 here]		96.3%
TVGGLVKWIL ? TVKKFA-NH2 (TVGGLVKWILKTVKKFA)		97.0%
TVGGLVKWILAAVKKFA		95.3%
TVGGLVKWILATVKKFA-NH2		97.4%
TVGGLVKWILDTFKKFA		88.9%
TVGGLVKWILDTVKKFA		98.3%

Substance	crude purity (method not given)	purity (crude or final not stated)
TVGGLVKWILDTVKKFA-NH2		96.3%
TVGGLVKWILDTVKKFI		83.4%
TVGGLVKWILDTVKKFK		84.4%
TVGGLVKWILDTVKKFW		95.5%
TVGGLVKWILDVVKKFA		88.1%
TVGGLVKWILDWVKKFA		93.2%
TVGGLVKWILKAVKKFA		88.0%
TVGGLVKWILKTVKKFA		91.2%
TVGGLVKWILKTVKKFA-NH2		95.1%
TVGGLVKWILNTVKKFA		99.9%
TVGGLVXWILATVKKFA		95.3%
TVGVLVKWILDTVKKFA		83.7%
TVGVLVKWILNVVAKFA		82.5%
TVKALVKWILKTVAKFA		95.2%
TVKALVKWILKTVAKFW		96.3%
TVKFLVKWILKWVAKFA		96.4%
TVKGLVKWILATVKKFA		93.7%
TVKGLVKWILNVVKKFA		96.0%
TVKGLYKWILNVVKKFA-NH2		95.9%
TVKKLVKWILKTVKKFA		92.3%
TVKVLVKWILKVVAKFA		84.5%
TVRALVKWILRTVAKFA		97.3%
TVRALVRWILRTVARFA		88.8%
